Measurements as given in US9511064B2, “Combination therapy for the treatment of cancer and immunosuppression” (Basilea Pharmaceutica AG, priority 2012, dated 2016).
Some entries share one result that the patent states for a list of compounds.

Test system: HL60 tumor cells and the mouse mast cell line 6.5
Assay: AlamarBlue conversion cell proliferation assay, general statements without cell line
Format: cell-based

SMILES	concentration exhibiting anti-proliferative activity in combination with 4 mM metformin [µM]
COC(=O)[C@H]1[C@H]2C[C@@H]3c4[nH]c5cc(OC)ccc5c4CCN3C[C@H]2C[C@@H](OC(=O)c2cc(OC)c(OC(=O)OCc3cccnc3)c(OC)c2)[C@@H]1OC [Example 7, methyl (1R,15S,17R,18R,19S,20S)-17-[(3,5-dimethoxy-4-{[(pyridin-3-ylmethoxy)carbonyl]oxy}phenyl)carbonyloxy]-6,18-dimethoxy-3,13-diazapentacyclo[11.8.0.0^2,10.0^4,9.0^15,20]henicosa-2(10),4,6,8-tetraene-19-carboxylate]	≤ 5
COC(=O)[C@H]1[C@H]2C[C@@H]3c4[nH]c5cc(OC)ccc5c4CCN3C[C@H]2C[C@@H](OC(=O)c2cc(OC)c(OC(=O)OCc3cc(OC)cc(OC)c3)c(OC)c2)[C@@H]1OC [Example 8, methyl (1R,15S,17R,18R,19S,20S)-17-{[4-({[(3,5-dimethoxyphenyl)methoxy]carbonyl}oxy)-3,5-dimethoxyphenyl]carbonyloxy}-6,18-dimethoxy-3,13-diazapentacyclo[11.8.0.0^2,10.0^4,9.0^15,20]henicosa-2(10),4,6,8-tetraene-19-carboxylate]	≤ 5
COC(=O)[C@H]1[C@H]2C[C@@H]3c4[nH]c5cc(OC)ccc5c4CCN3C[C@H]2C[C@@H](OC(=O)c2cc(OC)c(OC(=O)OCc3ccc(Cl)cc3)c(OC)c2)[C@@H]1OC [Example 9, methyl (1R,15S,17R,18R,19S,20S)-17-{[4-({[(4-chlorophenyl)methoxy]carbonyl}oxy)-3,5-dimethoxyphenyl]carbonyloxy}-6,18-dimethoxy-3,13-diazapentacyclo[11.8.0.0^2,10.0^4,9.0^15,20]henicosa-2(10),4,6,8-tetraene-19-carboxylate]	≤ 5
COC(=O)[C@H]1[C@H]2C[C@@H]3c4[nH]c5cc(OC)ccc5c4CCN3C[C@H]2C[C@@H](OC(=O)c2cc(OC)c(OC(=O)OCc3cc(Cl)cc(Cl)c3)c(OC)c2)[C@@H]1OC [Example 10, methyl (1R,15S,17R,18R,19S,20S)-17-{[4-({[(3,5-dichlorophenyl)methoxy]carbonyl}oxy)-3,5-dimethoxyphenyl]carbonyloxy}-6,18-dimethoxy-3,13-diazapentacyclo[11.8.0.0^2,10.0^4,9.0^15,20]henicosa-2(10),4,6,8-tetraene-19-carboxylate]	≤ 5
CCOC(=O)Oc1c(OC)cc(C(=O)O[C@@H]2C[C@@H]3CN4CCc5c([nH]c6cc(O)ccc56)[C@H]4C[C@@H]3[C@H](C(=O)OC)[C@H]2OC)cc1OC [Example 13, methyl (1R,15S,17R,18R,19S,20S)-17-({4-[(ethoxycarbonyl)oxy]-3,5-dimethoxyphenyl}carbonyloxy)-6-hydroxy-18-methoxy-3,13-diazapentacyclo[11.8.0.0^2,10.0^4,9.0^15,20]henicosa-2(10),4,6,8-tetraene-19-carboxylate]	≤ 5
CCOC(=O)Oc1c(OC)cc(C(=O)O[C@@H]2C[C@@H]3CN4CCc5c([nH]c6cc(OC(C)=O)ccc56)[C@H]4C[C@@H]3[C@H](C(=O)OC)[C@H]2OC)cc1OC [Example 14, methyl (1R,15S,17R,18R,19S,20S)-6-(acetyloxy)-17-({4-[(ethoxycarbonyl)oxy]-3,5-dimethoxyphenyl}carbonyloxy)-18-methoxy-3,13-diazapentacyclo[11.8.0.0^2,10.0^4,9.0^15,20]henicosa-2(10),4,6,8-tetraene-19-carboxylate]	≤ 5
CCOC(=O)Oc1c(OC)cc(C(=O)O[C@@H]2C[C@@H]3CN4CCc5c([nH]c6cc(OC(=O)c7ccccc7)ccc56)[C@H]4C[C@@H]3[C@H](C(=O)OC)[C@H]2OC)cc1OC [Example 15, methyl (1R,15S,17R,18R,19S,20S)-6-(benzoyloxy)-17-({4-[(ethoxycarbonyl)oxy]-3,5-dimethoxyphenyl}carbonyloxy)-18-methoxy-3,13-diazapentacyclo[11.8.0.0^2,10.0^4,9.0^15,20]henicosa-2(10),4,6,8-tetraene-19-carboxylate]	≤ 5
CCOC(=O)Oc1c(OC)cc(C(=O)O[C@@H]2C[C@@H]3CN4CCc5c([nH]c6cc(OC(=O)CNC(C)=O)ccc56)[C@H]4C[C@@H]3[C@H](C(=O)OC)[C@H]2OC)cc1OC [Example 17, methyl (1R,15S,17R,18R,19S,20S)-6-[(2-acetamidoacetyl)oxy]-17-({4-[(ethoxycarbonyl)oxy]-3,5-dimethoxyphenyl}carbonyloxy)-18-methoxy-3,13-diazapentacyclo[11.8.0.0^2,10.0^4,9.0^15,20]henicosa-2(10),4,6,8-tetraene-19-carboxylate]	≤ 5
CCOC(=O)Oc1c(OC)cc(C(=O)O[C@@H]2C[C@@H]3CN4CCc5c([nH]c6cc(OC(=O)CNC(=O)c7ccccc7)ccc56)[C@H]4C[C@@H]3[C@H](C(=O)OC)[C@H]2OC)cc1OC [Example 18, methyl (1R,15S,17R,18R,19S,20S)-17-({4-[(ethoxycarbonyl)oxy]-3,5-dimethoxyphenyl}carbonyloxy)-18-methoxy-6-{[2-(phenylformamido)acetyl]oxy}-3,13-diazapentacyclo[11.8.0.0^2,10.0^4,9.0^15,20]henicosa-2(10),4,6,8-tetraene-19-carboxylate]	≤ 5
COC(=O)[C@H]1[C@H]2C[C@@H]3c4[nH]c5cc(OC)ccc5c4CCN3C[C@H]2C[C@@H](OC(=O)c2cc(OC)c(OC(=O)OCc3cccc(Br)c3)c(OC)c2)[C@@H]1OC [Example 31]	≤ 5
COC(=O)[C@H]1[C@H]2C[C@@H]3c4[nH]c5cc(OC)ccc5c4CCN3C[C@H]2C[C@@H](OC(=O)c2cc(OC)c(OC(=O)OCc3cccc(C(F)(F)F)c3)c(OC)c2)[C@@H]1OC [Example 32]	≤ 5
COC(=O)[C@H]1[C@H]2C[C@@H]3c4[nH]c5cc(OC)ccc5c4CCN3C[C@H]2C[C@@H](OC(=O)c2cc(OC)c(OC(=O)OCc3cc(F)cc(F)c3)c(OC)c2)[C@@H]1OC [Example 33]	≤ 5
COC(=O)[C@H]1[C@H]2C[C@@H]3c4[nH]c5cc(OC)ccc5c4CCN3C[C@H]2C[C@@H](OC(=O)c2cc(OC)c(OC(=O)OCc3cccc4ccccc34)c(OC)c2)[C@@H]1OC [Example 34]	≤ 5
COC(=O)[C@H]1[C@H]2C[C@@H]3c4[nH]c5cc(OC)ccc5c4CCN3C[C@H]2C[C@@H](OC(=O)c2cc(OC)c(OC(=O)OCc3cccc(Cl)c3)c(OC)c2)[C@@H]1OC [Example 35]	≤ 5
COC(=O)[C@H]1[C@H]2C[C@@H]3c4[nH]c5cc(OC)ccc5c4CCN3C[C@H]2C[C@@H](OC(=O)c2cc(OC)c(OC(=O)OCc3ccc(F)cc3)c(OC)c2)[C@@H]1OC [Example 36]	≤ 5
COC(=O)[C@H]1[C@H]2C[C@@H]3c4[nH]c5cc(OC)ccc5c4CCN3C[C@H]2C[C@@H](OC(=O)c2cc(OC)c(OC(=O)OCc3ccc(C(F)(F)F)cc3)c(OC)c2)[C@@H]1OC [Example 38]	≤ 5
